Taken from: PubChem BioAssay AID504764 (Drosophila RNAi Screening Center, 2011)
In all, the deposit lists about 22,000 reagents; shown is an unselected part of those with a known target gene and a result. Of all reagents, 403 (1.9%) got an active call. 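Unnormalised raw counts per well; ratio z-scores behind the hit calls and whether each hit raises or lowers signal are not deposited.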 Unmarked entries are inactive. A plus sign joins genes that one reagent is predicted to hit. Not given: the amount of reagent.

- Purpose: 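Genome-wide screen for regulators of Notch-driven gene expression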 (primary screen)
- Cells: Drosophila Kc167 cells
- Knock-down reagent: long dsRNA against Drosophila genes
- Time to read-out: about 5 days (4 days dsRNA, then 24 h after transfection)
- Challenge: transfection of constitutively active membrane-tethered Notch lacking the extracellular domain, read 24 h later
- Read-out: 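Firefly luciferase from an E(spl)m3 reporter with active Notch, plus control-promoter and uninduced reporter wells for normalisation; unnormalised counts, duplicate wells a and b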
- Scale: induced reporter light, run 1, well a and induced reporter light, run 1, well b: higher = more light from the Notch target reporter with active Notch; control promoter light, run 1, well a and control promoter light, run 1, well b: higher = more light from the viral control promoter (cell number, transfection, viability); uninduced reporter light, run 1, well a: higher = more light from the Notch target reporter without active Notch
- Rule for the call: 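Hit if the duplicate-averaged log2 ratio of induced to control-promoter light gives a plate-wise z beyond ±2, or induced to uninduced beyond ±1.8; weak-control or discordant-duplicate wells dropped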
- Calls: active = modifier hit (raised or lowered Notch signal); inactive = not a hit

Target gene	DRSC id	induced reporter light, run 1, well a	induced reporter light, run 1, well b	control promoter light, run 1, well a	control promoter light, run 1, well b	uninduced reporter light, run 1, well a
CngA	DRSC06580	1.64e5	1.01e5	1.08e5	1.04e5	14650
CngA	DRSC07362	1.13e5	1.09e5	1.28e5	1.40e5	11155
LRP1	DRSC07238	2.01e5	1.82e5	2.52e5	2.06e5	17415
dock	DRSC00812	90930	90420	83370	94920	6530
SmF	DRSC07397	42870	38020	52185	59410	4350
Amacr	DRSC03198	2.87e5	2.82e5	2.43e5	2.38e5	16455
CG12784	DRSC14539	2.77e5	2.75e5	2.04e5	2.21e5	20115
Jhe	DRSC07174	39130	26760	33885	30980	3930
AOX3	DRSC15955	1.53e5	1.63e5	1.24e5	93700	10335

Reformatted: 3 of the entries above.
Target gene | DRSC id | induced reporter light, run 1, well a | induced reporter light, run 1, well b | control promoter light, run 1, well a | control promoter light, run 1, well b | uninduced reporter light, run 1, well a
CngA | DRSC07362 | 1.13e5 | 1.09e5 | 1.28e5 | 1.40e5 | 11155
LRP1 | DRSC07238 | 2.01e5 | 1.82e5 | 2.52e5 | 2.06e5 | 17415
dock | DRSC00812 | 90930 | 90420 | 83370 | 94920 | 6530

The list goes on:
Target gene	DRSC id	induced reporter light, run 1, well a	induced reporter light, run 1, well b	control promoter light, run 1, well a	control promoter light, run 1, well b	uninduced reporter light, run 1, well a
CG14020	DRSC02350	1.75e5	1.65e5	1.73e5	1.70e5	11235
CG8229	DRSC07114	89895	1.02e5	91535	80325	8315
sw + Sdic4 + Sdic3 + 2 more	DRSC20696	1.07e5	98765	1.19e5	1.39e5	11030
Cpr67Fa1	DRSC10932	1.45e5	1.34e5	2.04e5	1.65e5	5105
CG17068	DRSC20545	1.08e5	1.40e5	1.14e5	54600	9325
Sumo	DRSC03611	12330	7570	13638	17040	815
Gnmt	DRSC15987	29170	43015	58525	39585	5838
Caf1-55	DRSC16596	15032	11500	12825	15455	1885
tos	DRSC03624	2.43e5	2.65e5	2.39e5	2.33e5	21400
Tsp42Ei	DRSC06189	2.12e5	1.90e5	2.58e5	1.91e5	17535
CG31683 + CG18858	DRSC02703	39380	40200	37240	35440	2750
